PubChem BioAssay AID1259254 – NCATS | 2017
Screen: 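Genome-wide screen for genes that prevent DNA re-replication in cancer cells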 (primary screen). System: human HCT116 colorectal cancer cells. Knock-down reagent: single siRNA against human genes. Timing: 3 days. Measured: 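Imaged Hoechst DNA stain sorts each cell into a cycle phase by DNA amount; per plate, G2 fraction set to 0% for non-targeting and 100% for GMNN siRNA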. Direction: G2 robust z-score and G2 cells, % of GMNN control: higher = more G2 cells, more excess DNA replication; raw share of cells in G2: higher = larger share of cells with G2 DNA content. Rule for the call: 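Active siRNAs have a G2 robust z of 5 or more median absolute deviations over the median, which in these data means about 38% or higher of GMNN control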.
In all, the deposit lists about 59,000 reagents; shown is a part drawn at random. In the full data, about 1,550 (2.6%) were called active. 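G2 share is only a proxy for re-replication; each gene was hit by three separate siRNAs, and active genes were retested.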 Raw values vary from plate to plate and are shown uncorrected. Unmarked entries are inactive. The numbers tell different reagents against one gene apart. Reagent sequences are not shown. Not given: the amount of reagent.

gene knocked down	reagent no.	G2 robust z-score	G2 cells, % of GMNN control	raw share of cells in G2 (%)
AK5	1	2.07	17.5	11
AK5	2	-0.427	-0.0384	5.18
AK5	3	0.403	5.8	5.54
TRIM42	1	0.428	5.98	8.49
TRIM42	2	-0.517	-0.669	4.7
TRIM42	3	-0.471	-0.348	4.16
AZU1	1	-0.243	1.25	6
AZU1	2	1.16	11.1	8.84
AZU1	3	-0.58	-1.11	3.5
CIT	1	-1.11	-4.85	4.08
CIT	2	-0.639	-1.53	4.63
CIT	3	-0.637	-1.52	3.2
EHD4	1	-0.315	0.749	4.09
EHD4	2	-0.421	0.00479	5.96
EHD4	3	-0.662	-1.69	3.62
COX5A	1	-0.0778	2.42	5.73
COX5A	2	5.63 (active)	42.5	21.3
COX5A	3	-0.513	-0.641	2.98
PSENEN	1	-0.108	2.21	5.05
PSENEN	2	0.153	4.04	4.43
PSENEN	3	0.554	6.87	7.16
GOLGA2	1	-0.894	-3.32	2.14
GOLGA2	2	0.978	9.85	9.46
GOLGA2	3	-0.19	1.63	3.7
PNMA6B	1	0.825	8.77	6.34
PNMA6B	2	0.233	4.61	4.88
PNMA6B	3	-1.07	-4.54	2.55
MMP15	1	-0.571	-1.05	5.19
MMP15	2	-1.58	-8.18	2.01
MMP15	3	-0.0666	2.5	4.84
LACTB	1	-0.217	1.44	4.67
LACTB	2	-0.538	-0.82	3.09
LACTB	3	-0.223	1.4	2.23
TREML3P	1	0.322	5.23	5.78
TREML3P	2	-0.412	0.0682	3.29
TREML3P	3	-1.12	-4.93	2.2
EPHA1	1	-0.246	1.23	4.46
EPHA1	2	-0.686	-1.86	4.99
EPHA1	3	0.167	4.14	6.81

The list goes on; the last 9 above are carried over.
gene knocked down	reagent no.	G2 robust z-score	G2 cells, % of GMNN control	raw share of cells in G2 (%)
LACTB	1	-0.217	1.44	4.67
LACTB	2	-0.538	-0.82	3.09
LACTB	3	-0.223	1.4	2.23
TREML3P	1	0.322	5.23	5.78
TREML3P	2	-0.412	0.0682	3.29
TREML3P	3	-1.12	-4.93	2.2
EPHA1	1	-0.246	1.23	4.46
EPHA1	2	-0.686	-1.86	4.99
EPHA1	3	0.167	4.14	6.81
ARMC9	1	0.226	4.56	6.34
ARMC9	2	-0.326	0.673	4.6
ARMC9	3	-0.63	-1.46	1.98
DHRSX	1	0.0989	3.66	7.7
DHRSX	2	1.23	11.6	8.96
DHRSX	3	0.994	9.96	8.89
DERL1	1	-0.438	-0.113	5.6
DERL1	2	1.31	12.2	8.65
DERL1	3	-1.29	-6.07	2.02
EBPL	1	-0.228	1.36	5.29
EBPL	2	1.09	10.6	9.86
EBPL	3	-0.675	-1.78	3.55
LOC729973	1	-0.351	0.499	4.29
LOC729973	2	0.862	9.03	6.27
LOC729973	3	-0.999	-4.06	1.69
CCDC112	1	1.8	15.6	9.2
CCDC112	2	0.752	8.26	5.73
CCDC112	3	-0.25	1.21	3.14
ACO2	1	0.714	7.99	6.97
ACO2	2	-1.13	-4.96	3.31
ACO2	3	1.74	15.2	9.9
TULP3	1	1.33	12.3	10.6
TULP3	2	-0.851	-3.02	2.7
TULP3	3	0.514	6.58	5.67
GATD3	1	-0.98	-3.93	3.39
GATD3	2	0.501	6.5	6.47
GATD3	3	-0.0556	2.58	4.26
RAB1AP2	1	0.774	8.41	6.84
RAB1AP2	2	1.92	16.5	9.19
RAB1AP2	3	-0.223	1.4	3.55
